MIC data for 1 compound are collected here from paper PMC11382152 (The Journal of Organic Chemistry, 2024).

Broadly, the MIC is the smallest concentration in the dilution series that meets the test's criterion for growth inhibition.

In assay [1] the test system is Staphylococcus aureus (MRSA) ATCC 700698. In words: MIC assay. The format is cell-based. The conditions noted are these: ATCC700698|MRSA.
The subject of assay [2] is Staphylococcus aureus (MSSA) ATCC 29213. In words: MIC assay. The settings on record: ATCC29213|MSSA. The format is cell-based.

Values after ≈ are worked out from the molar mass of the structure shown.

`CN[C@H](CC(C)C)C(=O)N[C@H]1C(=O)N[C@@H](CC(N)=O)C(=O)N[C@H]2C(=O)N[C@H]3C(=O)N[C@H](C(=O)N[C@H](C(=O)O)c4cc(O)cc(O)c4-c4cc3ccc4O)[C@H](O)c3ccc(c(Cl)c3)Oc3cc2cc(c3O[C@@H]2O[C@H](CO)[C@@H](O)[C@H](O)[C@H]2O[C@H]2C[C@](C)(N)[C@H](O)[C@H](C)O2)Oc2ccc(cc2Cl)[C@H]1O` [vancomycin]: the minimum inhibitory concentration (MIC) in assay [1] was 4 µg/mL (≈ 2.76 µM); in assay [2] it was 1 µg/mL (≈ 0.69 µM).
